Laboratory results: PMC4992311, “The MarR-like protein PchR (YvmB) regulates expression of genes involved in pulcherriminic acid biosynthesis and in the initiation of sporulation in Bacillus subtilis”

Molecular target: T1, YvmB-His6 (PchR) (UniProt P40762)
T1 sequence (looked up, limits assumed): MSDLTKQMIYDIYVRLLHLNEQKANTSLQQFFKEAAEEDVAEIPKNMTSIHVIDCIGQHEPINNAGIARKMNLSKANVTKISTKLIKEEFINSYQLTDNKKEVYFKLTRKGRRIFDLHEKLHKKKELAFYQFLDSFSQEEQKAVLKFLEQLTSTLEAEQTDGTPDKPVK
Test: EMSA
Conditions: three complexes; EMSA: 1x = 20 mM Tris pH 8, 100 mM KCl, 0.5 mM DTT, 5 mM MgCl2, 0.05 mg/ml BSA, 0.05 mg/ml poly(dIdC) (from 5x buffer); 50 ng Cy5 DNA in 20 uL; 20 min at 30 C; recombinant protein; protein details: C-terminal His6; label: 5' Cy5

“TTCCAAATGTTTTTTAAGATTTTAATAATCATTTTCAATACCCATATCATGATAAATGTTTACTAGTAAACATTAGTCATTTTATCCCTTTTCCTTCCAAACGTCAATATGATCTGTGCCCAAATATTTGAAAATAAATGTAAACATCACATTTTCCACACACTTTTTACACGCATATTCAGCATGACATATCAACAAATAGTCTAAACACCAACAATTGACAACGAAAACAAGAAAACAAGAAAAGATAAAATAAAATTGTTCACCAGTAAACGATTTGTTTTATTGTTTCATCGTAAACTATTATTCCTAAGAAAGAAGGTAGCCT (double strand) [P3 probe (entire yvmB-yvmC intergenic region)]”: binds.

Construct, isoform or probe ends are uncertain for at least one entry. Tags and fusion partners may be left off the protein sequences shown.
